Residue numbers refer to the chain shown, from its start. These are yes or no findings as the source states them, for the method shown. Tags and fused reporters may be left off the sequences shown.

We go through 24 molecules from US20210380703A1.

The chains are these.
B1: 367_H01 (antibody, V domains shown)
VH: EVQLLESGGGLVQPGGSLRLSCAASGFTFDSYGMNWVRQAPGKGLEWVSGINYNGGYKSYADSVKGRFTISRDNSKNTLYLQMNSLRAEDTAVYYCARAANWHDTALDYWGQGTLVTVSS
VL: DIQMTQSPSSLSASVGDRVTITCRASQSILTYLNWYQQKPGKAPKLVIYAATSRASGVPSRFSGSGSGTDFTLTISSLQPEDFATYYCQQSYDNPLTFGGGTKVEIK
B2: 369_H03 (antibody, V domains shown)
VH: B1 VH with D30S, G33S, N35H, S49A, G50S, G55S
VL: B1 VL with L30V, T31S, V47L, A51T, N94T
B3: 371_D07 (antibody, V domains shown)
VH: B1 VH with S31D, S49A, G50N, S59G, A106H
VL: B1 VL with D93E, N94L
B4: 368_F10 (antibody, V domains shown)
VH: B1 VH with D30S, S49A, G55S, K58T, A106H
VL: B1 VL with L30V, T31S, L33V, V47L, N94T
B5: 372_B11 (antibody, V domains shown)
VH: B1 VH with D30S, G33S, N35H, S49A, G55S, K58T, A106H
VL: B1 VL with L33V, R54L, N94T
B6: 365_B10 (antibody, V domains shown)
VH: B1 VH with S31D, G33S, N35H, S49A, G50S, G55S, S59G
VL: B1 VL with T31R, V47L, Y92D, D93N, N94L
B7: 373_E11 (antibody, V domains shown)
VH: B1 VH with N35H, S49A, G50S, K58T
VL: B1 VL with L30V, T31S, N94S
B8: 369_B03 (antibody, V domains shown)
VH: B1 VH with D30S, N35H, S49A, K58T
VL: B1 VL with L33V, R54L, D93E, N94L
B9: 368_A12 (antibody, V domains shown)
VH: B1 VH with G33S, N35H, G50S, G55S, S59G
VL: B1 VL with N94S
B10: 370_B01 (antibody, V domains shown)
VH: B1 VH with S31D, N35H
VL: B1 VL with T31S, L33V, V47L, A50V, T52S, D93S, N94L
B11: 368_B10 (antibody, V domains shown)
VH: B1 VH with N35H, S49A, G50S, K58T
VL: B1 VL with Y92D, D93E, N94L
B12: 369_E03 (antibody, V domains shown)
VH: B1 VH with D30S, N35H, S49A, K58T, N101T, A106H
VL: B1 VL with T31S, L33V, V47L, R54L, D93E
B13: 373_G08 (antibody, V domains shown)
VH: B1 VH with G33S, G50N, K58T, A99G
VL: B1 VL with V47L, R54L, N94S
B14: 373_C07 (antibody, V domains shown)
VH: B1 VH with G33S, S49A, G55S, K58T, A99G, A106H
VL: B1 VL with D93E, N94T
B15: 375_A12 (antibody, V domains shown)
VH: B1 VH with D30S, G33S, G55S, A99G
VL: B1 VL with T31S, A51V, D93E, N94T
B16: 373_H03 (antibody, V domains shown)
VH: B1 VH with D30S, G33S, G55S, A99G
VL: B1 VL with T31S, V47L, A51T, D93E
B17: 374_C08 (antibody, V domains shown)
VH: B1 VH with G55S, A99S, N101T
VL: B1 VL with T31S, L33V, V47L, A51V, N94S
B18: 374_G08 (antibody, V domains shown)
VH: B1 VH with G33S, K58T, A99G
VL: B1 VL with L33V, N94S
B19: 374_C09 (antibody, V domains shown)
VH: B1 VH with G50S, S59G, A99G, A106H
VL: B1 VL with L30V, T31S, D93E, N94L
B20: 368_D10 (antibody, V domains shown)
VH: B1 VH with S49A, G55S, K58T, A99S, N101T
VL: B1 VL with T31S, N94S
B21: 374_C01 (antibody, V domains shown)
VH: B1 VH with G55S, A99G
VL: B1 VL with V47L, D93E, N94T
B22: 374_D05 (antibody, V domains shown)
VH: B1 VH with G33S, G55S, K58T, S59G, A99G, A106H
VL: B1 VL with V47L, N94T
B23: 374_B03 (antibody, V domains shown)
VH: B1 VH with G33S, K58T, A99G
VL: B1 VL with N94S
B24: 375_A07 (antibody, V domains shown)
VH: B1 VH with G33S, G50S, G55S, K58T, S59G, A99G, A106H
VL: B1 VL with V47L, N94T

The first test concerns the target T1, His-tagged Mouse ACVR2B (mouse) (UniProt P27040).
T1 sequence (looked up): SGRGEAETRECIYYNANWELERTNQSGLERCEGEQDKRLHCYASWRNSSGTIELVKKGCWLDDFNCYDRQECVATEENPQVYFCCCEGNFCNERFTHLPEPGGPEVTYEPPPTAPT
Nature of the test: ELISA, coated His-tagged antigen, 10 pt.
B1: the binding entry is reported as “no binding (tested: 1 uM)”.

For the molecule B2, the binding entry is “no binding (tested: 1 uM)”.

Take B3: the binding result is “no binding (tested: 1 uM)”.

As to B4, the binding entry is on record as “no binding (tested: 1 uM)”.

For the molecule B5, the binding entry is reported as “no binding (tested: 1 uM)”.

For B6, the binding entry is “no binding (tested: 1 uM)”.

In the case of B7, the binding entry is “no binding (tested: 1 uM)”.

B8: the binding entry was “no binding (tested: 1 uM)”.

On to B9, for which the binding entry was “no binding (tested: 1 uM)”.

For the molecule B10, the binding result was “no binding (tested: 1 uM)”.

B11: the binding entry was “no binding (tested: 1 uM)”.

The next test concerns the target T2, His-tagged Human ACVR2B (human) (UniProt Q13705).
T2 sequence (looked up): T1 sequence (looked up) with P101A
Put plainly: ELISA, coated His-tagged antigen, 10 pt.
As to B1, the binding result is “no binding (tested: 1 uM)”.

In the case of B2, the binding entry is listed as “no binding (tested: 1 uM)”.

Take B3: the binding result is “no binding (tested: 1 uM)”.

For B4, the binding result is recorded as “no binding (tested: 1 uM)”.

Regarding B5, the binding result is on record as “no binding (tested: 1 uM)”.

Turning to B6, the binding result is given as “no binding (tested: 1 uM)”.

For B7, the binding result is listed as “no binding (tested: 1 uM)”.

In the case of B8, the binding result is “no binding (tested: 1 uM)”.

B9: the binding entry is recorded as “no binding (tested: 1 uM)”.

As for B10, the binding result is “no binding (tested: 1 uM)”.

Turning to B12, the binding result is recorded as “no binding (tested: 1 uM)”.

Regarding B11, the binding result is on record as “no binding (tested: 1 uM)”.

The next test addresses T1, His-tagged Mouse ACVR2B (mouse). Put plainly: ELISA, coated antigen, 10 pt.
As for B13, the binding result is listed as “no binding (tested: 1 uM)”.

Consider B14, for which the binding entry was “no binding (tested: 1 uM)”.

For the molecule B15, the binding entry is listed as “no binding (tested: 1 uM)”.

In the case of B16, the binding result is “no binding (tested: 1 uM)”.

On to B17, for which the binding entry was “no binding (tested: 1 uM top)”.

B18: the binding result is on record as “no binding (tested: 1 uM)”.

For B19, the binding result is “no binding (tested: 1 uM)”.

Take B20: the binding entry is “no binding (tested: 1 uM top)”.

For the molecule B21, the binding result is given as “no binding (tested: 1 uM)”.

For B22, the binding entry is “no binding (tested: 1 uM)”.

Consider B23, for which the binding result is recorded as “no binding (tested: 1 uM)”.

Consider B24, for which the binding entry is reported as “no binding (tested: 1 uM)”.

For a further test, the target named is T2, His-tagged Human ACVR2B (human). Put plainly: ELISA, coated antigen, 10 pt.
Consider B13, for which the binding entry was “no binding (tested: 1 uM)”.

As for B14, the binding entry is reported as “no binding (tested: 1 uM)”.

In the case of B15, the binding result is “no binding (tested: 1 uM)”.

For the molecule B16, the binding entry is listed as “no binding (tested: 1 uM)”.

As to B17, the binding entry was “no binding (tested: 1 uM top)”.

As for B18, the binding entry is listed as “no binding (tested: 1 uM)”.

As for B19, the binding entry is “no binding (tested: 1 uM)”.

In the case of B20, the binding result was “no binding (tested: 1 uM top)”.

Consider B21, for which the binding result is “no binding (tested: 1 uM)”.

As to B22, the binding entry is “no binding (tested: 1 uM)”.

B23: the binding result is reported as “no binding (tested: 1 uM)”.

On to B24, for which the binding entry is “no binding (tested: 1 uM)”.
